Results are given in words; binding and its absence hold for the method and conditions named. Some binding calls cover weakened binding; strength is not graded here.
Columns and labels:
[1] = target: T1, GHR_pY595 phosphopeptide (growth hormone receptor), wild-type; experiment: crystal structure; SBC-GHR2: GHR_pY595 and GHR_pY487 mixed with S^KKQBC at 1:1:1; 0.005 M cobalt chloride, 0.1 M MES pH 6.5, 1.0 M ammonium sulfate, 4 °C; 2.8 Å; both purified; details: remark: other sources report otherwise
T1 chain: PVPDYTSIHIV

[2] = target: T1, GHR_pY595 phosphopeptide (growth …); experiment: crystal structure; SBC-GHR: S^KKQBC incubated with five times molar excess of GHR_pY595; 0.005 M cobalt(II) chloride, 0.1 M MES pH 6.5, 1.0 M ammonium sulfate, 4 °C; 1.98 Å; both purified; details: remark: other sources report otherwise

binding [1]: binds
binding [2]: binds
B1: GHR_pY595 phosphopeptide (growth hormone receptor), wild-type (peptide)
peptide: PVPDYTSIHIV
modifications: here or on the partner: phosphotyrosine (pY) at the 5th residue (Tyr595); C-terminal amide; phosphotyrosine (pY) at the 5th residue (Tyr595); C-terminal amide
